Experimental data reported in publication PMC9637104.
These are yes or no findings as the source states them, for the method shown. In cells and extracts the contact can be indirect. Some binding calls cover weakened binding; strength is not graded here.

The chains behind the UniProt entries cited, without tags or fusion partners.
UniProt Q8C9H6: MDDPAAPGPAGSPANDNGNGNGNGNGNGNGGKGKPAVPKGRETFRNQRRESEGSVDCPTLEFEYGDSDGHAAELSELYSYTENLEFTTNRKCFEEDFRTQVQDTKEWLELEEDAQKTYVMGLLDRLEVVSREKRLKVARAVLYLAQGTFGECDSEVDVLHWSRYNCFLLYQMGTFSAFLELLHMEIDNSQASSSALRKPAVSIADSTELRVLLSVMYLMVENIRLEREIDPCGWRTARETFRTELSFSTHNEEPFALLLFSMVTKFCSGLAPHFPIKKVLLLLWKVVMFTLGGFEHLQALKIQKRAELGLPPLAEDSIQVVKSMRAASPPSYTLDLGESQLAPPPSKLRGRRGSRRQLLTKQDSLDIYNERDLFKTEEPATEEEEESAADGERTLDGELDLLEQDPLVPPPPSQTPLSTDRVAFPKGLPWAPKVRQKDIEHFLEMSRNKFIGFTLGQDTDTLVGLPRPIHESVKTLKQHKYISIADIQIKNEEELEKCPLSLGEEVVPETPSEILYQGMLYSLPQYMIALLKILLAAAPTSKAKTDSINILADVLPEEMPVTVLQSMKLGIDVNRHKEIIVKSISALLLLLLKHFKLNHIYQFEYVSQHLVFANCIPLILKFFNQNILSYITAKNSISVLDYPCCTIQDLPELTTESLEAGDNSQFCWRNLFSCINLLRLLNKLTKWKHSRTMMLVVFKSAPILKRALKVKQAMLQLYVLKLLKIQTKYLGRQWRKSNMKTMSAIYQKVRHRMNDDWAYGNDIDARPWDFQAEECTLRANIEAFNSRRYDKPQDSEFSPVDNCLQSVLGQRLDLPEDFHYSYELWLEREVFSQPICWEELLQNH

Key:
[1] = biological target: Strip2 (mouse (endogenous in CGR8 ESCs)) (UniProt Q8C9H6); assay: proximity ligation; Duolink PLA on fixed, permeabilised Strip2+ 0-day ESCs and 1-day EBs; primary antibodies to Strip2 and to the partner; Strip2-silenced ESCs as negative control
[2] = biological target: Strip2 (mouse (endogenous in CGR8 ESCs)) (UniProt Q8C9H6); assay: proximity ligation; Duolink PLA on fixed, permeabilised Strip2+ 4-day EBs; primary antibodies to Strip2 and to the partner; Strip2-silenced cells as negative control

B1: ZFP57 (protein, UniProt Q8C6P8 1-421)
chain: MAARKQSSQPSRTPVSYEDVAVSFTQEEWEYLTSTQKTLYQKVMSETFKNLTFVGSKKKPQEPSSDLQDKNEEQEKSSSCTGVFKGGPFFFCLTCGKCFKKNTFLFNHQFPVRSRRLAVTNPQSRKGKGYKAQHRGERPFFCNFCGKTYRDASGLSRHRRAHLGYRPRSCPECGKCFRDQSEVNRHLKVHQNKPAASNQAGNQASNQRLKSRVPPTTPRSQAPALKYVKVIQGPVARAKARNSGASTLNVRSNSITVVRSREKISCPYCHITFTMRTCLLTHLKIHFRRQPNQHFCCKESAHSSNTLRMQKIYTCPVCDSSFRGKESLLDHLCCQRPIRFSKCWEILGHLLGYLHEPVVLGNIFKVRDSSGKRMESRRRRRKRACTENPETEGLSGKGRVAPWEMEGATSPESPVTEEDSD
Q: How did the binding [1] turn out when B1 was run?
A: binds

Q: What about the binding [2] of the same binder?
A: binds
